# In the supplement of paper PMC10727501:
# Some of the results follow. This data set is noisy: repeats of one test often differ as much as different tests do.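 Free-swimming zebrafish larvae were assessed for O-bend response probability to dark flashes (naive: first five; training: remaining flashes across four 60-flash blocks; test: later 60-flash block) and for OMR turning toward alternating leftward/rightward LED motion. Six treated larvae were compared against sixty 0.1% DMSO controls; hits required |SSMD|≥2.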
# What was measured:
# Details in all cases: 10 µM; pre-incubation: 30-90 min
# [1] = test system: Danio rerio larvae (5 dpf, TLF); test: OMR-Perf (SSMD vs DMSO vehicle); higher = higher than vehicle (e.g. higher dark-flash O-bend response probability, or better optomotor performance)
# [2] = test system: Danio rerio larvae (5 dpf, TLF); test: Prob-Test (SSMD vs DMSO vehicle); higher = higher than vehicle (e.g. higher dark-flash O-bend response probability, or better optomotor performance)
# [3] = test system: Danio rerio larvae (5 dpf, TLF); test: Prob-Naive (SSMD vs DMSO vehicle); higher = higher than vehicle (e.g. higher dark-flash O-bend response probability, or better optomotor performance)
# [4] = test system: Danio rerio larvae (5 dpf, TLF); test: Prob-Train (SSMD vs DMSO vehicle); higher = higher than vehicle (e.g. higher dark-flash O-bend response probability, or better optomotor performance)
Structure (SMILES),OMR-Perf [1],Prob-Test [2],Prob-Naive [3],Prob-Train [4]
O=c1cc(-c2ccc(O)cc2)oc2cc(O)cc(O)c12 [Apigenin],-0.352,-0.258,-0.422,-0.193
COc1cc2nccc(Oc3ccc(NC(=O)NC4CC4)c(Cl)c3)c2cc1C(N)=O [Lenvatinib (E7080)],0.539,0.0997,0.173,0.0994
Br.NC(=O)C(c1ccccc1)(c1ccccc1)[C@@H]1CCN(CCc2ccc3c(c2)CCO3)C1 [Darifenacin HBr],0.0837,-0.226,0.6,-0.374
CCOC(=O)C1=C(COCCN)NC(C)=C(C(=O)OC)C1c1ccccc1Cl (configuration not stated) [Amlodipine],0.485,0.0955,0.0551,0.334
C[C@@H]1CC(=O)NN=C1c1ccc(NN=C(C#N)C#N)cc1 [Levosimendan],-0.526,0.0478,-0.0234,0.0272
CN(C)C(=N)NC(=N)N.Cl [Metformin hydrochloride (Glucophage)],0.066,-0.183,0.507,-0.178
COc1ccccc1N1CCN(CCCNc2cc(=O)n(C)c(=O)n2C)CC1.Cl [Urapidil HCl],-0.467,0.437,0.462,0.357
CN(C)[C@H]1C(O)=C(C(N)=O)C(=O)[C@@]2(O)C(O)=C3C(=O)c4c(O)cccc4[C@](C)(O)[C@H]3[C@@H](O)[C@@H]12.O.O [Oxytetracycline dihydrate],-0.0991,0.42,0.131,0.0586
CN(N=O)C(=O)N[C@@H]1[C@@H](O)[C@H](O)[C@@H](CO)O[C@@H]1O [Streptozotocin (STZ)],-0.298,-0.33,-0.562,-0.419
CC(C)N(C[C@H]1O[C@@H](n2cnc3c(N)ncnc32)[C@H](O)[C@@H]1O)[C@H]1C[C@@H](CCc2nc3cc(C(C)(C)C)ccc3[nH]2)C1,-0.41,0.575,-0.0813,0.381
Cc1noc(NS(=O)(=O)c2ccc(N)cc2)c1C [Sulfisoxazole],-0.522,-0.106,0.402,0.0322
CCN(CC)CC#CCOC(=O)C(O)(c1ccccc1)C1CCCCC1 (configuration not stated) [Oxybutynin (Ditropan)],-0.748,-0.427,0.13,-1.19
CCOC(=O)C(C)(C)Oc1ccc(Cl)cc1 [Clofibrate (Atromid-S)],-0.968,-0.282,-0.818,-2.64
C[C@@]1(c2nc3c(C(N)=O)cccc3[nH]2)CCCN1 [Veliparib (ABT-888)],-0.00536,0.108,-0.133,-0.223
CNC(=O)c1ccc(-c2cnc3ncc(Cc4ccc5ncccc5c4)n3n2)cc1F,0.185,0.574,0.538,0.76
CC1=C(C(=O)OC(C)C)C(c2cccc([N+](=O)[O-])c2)C(C(=O)OC2CN(C(c3ccccc3)c3ccccc3)C2)=C(N)N1 (configuration not stated) [Azelnidipine],-0.679,-1.76,-0.199,-1.36
Nc1ncnc2[nH]cnc12 [Adenine],0.434,-0.419,0.549,-1.1
CC1CCN(CC[C@H]2CCCN2S(=O)(=O)c2cccc(O)c2)CC1.Cl,-0.528,-1.37,0.389,-1.31
C[C@@H]1O[C@@H](O[C@@H]2[C@H](Oc3cc(O)c(C(=O)CCc4ccc(O)cc4)c(O)c3)O[C@H](CO)[C@@H](O)[C@@H]2O)[C@H](O)[C@H](O)[C@H]1O [Naringin Dihydrochalcone],0.0673,-0.044,-0.234,-0.127
CN[C@H]1[C@@H](O)[C@H]2O[C@@H]3O[C@H](C)CC(=O)[C@]3(O)O[C@@H]2[C@@H](NC)[C@H]1O.Cl.Cl [Spectinomycin HCl],0.204,0.531,0.402,0.694
CCN(Cc1ccncc1)C(=O)C(CO)c1ccccc1 (configuration not stated) [Tropicamide],-0.176,-0.533,0.357,-0.215
CCOC(=O)[C@H](CCc1ccccc1)N[C@H]1CCc2ccccc2N(CC(=O)O)C1=O.Cl [Benazepril HCl],-0.407,-0.16,-0.226,-0.678
Cc1cccc(N(C)C(=S)Oc2ccc3ccccc3c2)c1 [Tolnaftate],-1.17,-1.49,-3.55,-2.66

# Three entries already listed, ordered by SMILES length, ascending:
Structure (SMILES),OMR-Perf [1],Prob-Test [2],Prob-Naive [3],Prob-Train [4]
CCOC(=O)C1=C(COCCN)NC(C)=C(C(=O)OC)C1c1ccccc1Cl (configuration not stated) [Amlodipine],0.485,0.0955,0.0551,0.334
CNC(=O)c1ccc(-c2cnc3ncc(Cc4ccc5ncccc5c4)n3n2)cc1F,0.185,0.574,0.538,0.76
CC1=C(C(=O)OC(C)C)C(c2cccc([N+](=O)[O-])c2)C(C(=O)OC2CN(C(c3ccccc3)c3ccccc3)C2)=C(N)N1 (configuration not stated) [Azelnidipine],-0.679,-1.76,-0.199,-1.36
